Assay results published in the supplement of paper PMC10849652.
Some of the results follow.

Sequences of proteins named here, by UniProt entry; tags and fusion partners are left off. A change or cut given only in a name is not applied to a line headed by its entry.
UniProt Q9Y450, whole entry, looked up: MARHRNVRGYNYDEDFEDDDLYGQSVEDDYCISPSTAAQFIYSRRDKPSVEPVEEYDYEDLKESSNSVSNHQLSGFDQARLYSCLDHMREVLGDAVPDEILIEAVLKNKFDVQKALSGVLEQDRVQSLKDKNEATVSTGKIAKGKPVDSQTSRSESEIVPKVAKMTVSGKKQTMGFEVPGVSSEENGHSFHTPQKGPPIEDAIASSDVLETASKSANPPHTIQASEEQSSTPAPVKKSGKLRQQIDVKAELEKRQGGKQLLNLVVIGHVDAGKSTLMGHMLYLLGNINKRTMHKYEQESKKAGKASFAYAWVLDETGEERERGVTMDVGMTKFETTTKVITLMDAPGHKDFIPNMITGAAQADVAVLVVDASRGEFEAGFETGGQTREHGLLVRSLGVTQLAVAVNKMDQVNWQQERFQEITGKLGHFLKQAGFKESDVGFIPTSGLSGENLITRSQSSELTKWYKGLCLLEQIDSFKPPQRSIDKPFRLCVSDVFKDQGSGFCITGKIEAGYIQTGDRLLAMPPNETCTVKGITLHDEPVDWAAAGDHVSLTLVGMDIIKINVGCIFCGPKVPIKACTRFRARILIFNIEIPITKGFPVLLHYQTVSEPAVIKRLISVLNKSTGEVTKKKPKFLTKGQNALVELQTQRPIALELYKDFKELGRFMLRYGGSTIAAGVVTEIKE
UniProt Q12789: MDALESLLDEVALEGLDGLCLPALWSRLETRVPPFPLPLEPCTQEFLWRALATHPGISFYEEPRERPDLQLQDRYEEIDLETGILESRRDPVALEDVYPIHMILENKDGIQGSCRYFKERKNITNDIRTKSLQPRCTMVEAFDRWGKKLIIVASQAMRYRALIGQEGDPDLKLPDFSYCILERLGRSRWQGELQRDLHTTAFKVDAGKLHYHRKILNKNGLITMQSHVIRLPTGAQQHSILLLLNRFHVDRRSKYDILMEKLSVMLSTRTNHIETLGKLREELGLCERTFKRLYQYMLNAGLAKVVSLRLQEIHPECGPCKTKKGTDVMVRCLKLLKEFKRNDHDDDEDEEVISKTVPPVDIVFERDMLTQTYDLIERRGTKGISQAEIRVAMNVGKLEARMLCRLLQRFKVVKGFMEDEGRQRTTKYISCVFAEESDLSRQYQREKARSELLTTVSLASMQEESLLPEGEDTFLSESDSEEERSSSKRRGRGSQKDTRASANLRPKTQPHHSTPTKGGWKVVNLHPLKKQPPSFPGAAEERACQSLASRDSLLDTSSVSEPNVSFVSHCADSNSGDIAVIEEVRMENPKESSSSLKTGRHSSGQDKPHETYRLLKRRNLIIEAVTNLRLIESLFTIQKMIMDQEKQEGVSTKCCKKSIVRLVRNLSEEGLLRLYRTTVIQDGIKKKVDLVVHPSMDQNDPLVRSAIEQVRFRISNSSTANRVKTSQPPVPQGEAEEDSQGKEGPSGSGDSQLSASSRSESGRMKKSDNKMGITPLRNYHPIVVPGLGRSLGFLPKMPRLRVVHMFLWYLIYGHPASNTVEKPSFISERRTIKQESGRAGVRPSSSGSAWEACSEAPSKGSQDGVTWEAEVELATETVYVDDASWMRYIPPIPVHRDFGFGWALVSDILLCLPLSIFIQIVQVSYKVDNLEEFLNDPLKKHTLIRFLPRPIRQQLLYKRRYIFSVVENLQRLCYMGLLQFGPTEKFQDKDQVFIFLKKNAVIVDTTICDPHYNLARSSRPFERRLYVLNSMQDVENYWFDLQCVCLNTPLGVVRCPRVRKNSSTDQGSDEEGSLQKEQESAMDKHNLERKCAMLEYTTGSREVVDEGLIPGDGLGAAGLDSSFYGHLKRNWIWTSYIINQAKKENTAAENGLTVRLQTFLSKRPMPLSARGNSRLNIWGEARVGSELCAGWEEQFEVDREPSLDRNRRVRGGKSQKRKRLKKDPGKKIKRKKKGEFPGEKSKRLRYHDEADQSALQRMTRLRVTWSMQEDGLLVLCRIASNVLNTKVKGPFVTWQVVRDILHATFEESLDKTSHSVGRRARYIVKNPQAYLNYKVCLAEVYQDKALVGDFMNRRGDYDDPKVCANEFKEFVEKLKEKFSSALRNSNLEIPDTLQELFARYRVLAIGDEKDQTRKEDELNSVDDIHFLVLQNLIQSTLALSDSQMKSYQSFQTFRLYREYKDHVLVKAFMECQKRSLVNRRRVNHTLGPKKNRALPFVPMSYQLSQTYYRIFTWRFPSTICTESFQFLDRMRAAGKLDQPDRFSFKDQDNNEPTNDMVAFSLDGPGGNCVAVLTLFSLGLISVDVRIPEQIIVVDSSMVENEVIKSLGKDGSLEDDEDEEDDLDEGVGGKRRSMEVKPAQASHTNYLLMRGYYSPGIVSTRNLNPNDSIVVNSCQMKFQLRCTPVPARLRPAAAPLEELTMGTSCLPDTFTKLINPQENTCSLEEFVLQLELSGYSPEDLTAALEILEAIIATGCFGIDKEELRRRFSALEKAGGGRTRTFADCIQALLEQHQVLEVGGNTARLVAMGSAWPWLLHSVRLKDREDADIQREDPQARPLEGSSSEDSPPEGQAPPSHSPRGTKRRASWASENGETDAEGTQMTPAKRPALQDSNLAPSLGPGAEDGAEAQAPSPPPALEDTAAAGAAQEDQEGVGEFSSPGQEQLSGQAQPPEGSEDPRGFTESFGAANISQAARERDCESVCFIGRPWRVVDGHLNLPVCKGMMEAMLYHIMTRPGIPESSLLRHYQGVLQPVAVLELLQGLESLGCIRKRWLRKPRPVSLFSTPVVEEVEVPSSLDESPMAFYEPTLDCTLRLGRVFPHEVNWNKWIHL
UniProt P49840: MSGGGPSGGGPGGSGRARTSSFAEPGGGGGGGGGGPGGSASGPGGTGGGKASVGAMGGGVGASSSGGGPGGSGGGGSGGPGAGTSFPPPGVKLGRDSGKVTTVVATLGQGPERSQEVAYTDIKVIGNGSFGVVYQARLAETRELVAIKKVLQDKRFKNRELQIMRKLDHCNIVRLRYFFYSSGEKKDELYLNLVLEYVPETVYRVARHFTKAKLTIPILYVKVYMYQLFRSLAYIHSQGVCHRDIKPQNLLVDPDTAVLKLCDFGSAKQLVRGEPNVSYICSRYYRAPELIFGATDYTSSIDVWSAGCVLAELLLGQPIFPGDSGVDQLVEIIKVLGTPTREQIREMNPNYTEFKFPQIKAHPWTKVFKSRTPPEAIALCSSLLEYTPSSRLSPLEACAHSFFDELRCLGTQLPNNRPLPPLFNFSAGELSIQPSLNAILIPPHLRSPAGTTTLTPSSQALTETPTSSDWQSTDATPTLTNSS
UniProt Q9H583: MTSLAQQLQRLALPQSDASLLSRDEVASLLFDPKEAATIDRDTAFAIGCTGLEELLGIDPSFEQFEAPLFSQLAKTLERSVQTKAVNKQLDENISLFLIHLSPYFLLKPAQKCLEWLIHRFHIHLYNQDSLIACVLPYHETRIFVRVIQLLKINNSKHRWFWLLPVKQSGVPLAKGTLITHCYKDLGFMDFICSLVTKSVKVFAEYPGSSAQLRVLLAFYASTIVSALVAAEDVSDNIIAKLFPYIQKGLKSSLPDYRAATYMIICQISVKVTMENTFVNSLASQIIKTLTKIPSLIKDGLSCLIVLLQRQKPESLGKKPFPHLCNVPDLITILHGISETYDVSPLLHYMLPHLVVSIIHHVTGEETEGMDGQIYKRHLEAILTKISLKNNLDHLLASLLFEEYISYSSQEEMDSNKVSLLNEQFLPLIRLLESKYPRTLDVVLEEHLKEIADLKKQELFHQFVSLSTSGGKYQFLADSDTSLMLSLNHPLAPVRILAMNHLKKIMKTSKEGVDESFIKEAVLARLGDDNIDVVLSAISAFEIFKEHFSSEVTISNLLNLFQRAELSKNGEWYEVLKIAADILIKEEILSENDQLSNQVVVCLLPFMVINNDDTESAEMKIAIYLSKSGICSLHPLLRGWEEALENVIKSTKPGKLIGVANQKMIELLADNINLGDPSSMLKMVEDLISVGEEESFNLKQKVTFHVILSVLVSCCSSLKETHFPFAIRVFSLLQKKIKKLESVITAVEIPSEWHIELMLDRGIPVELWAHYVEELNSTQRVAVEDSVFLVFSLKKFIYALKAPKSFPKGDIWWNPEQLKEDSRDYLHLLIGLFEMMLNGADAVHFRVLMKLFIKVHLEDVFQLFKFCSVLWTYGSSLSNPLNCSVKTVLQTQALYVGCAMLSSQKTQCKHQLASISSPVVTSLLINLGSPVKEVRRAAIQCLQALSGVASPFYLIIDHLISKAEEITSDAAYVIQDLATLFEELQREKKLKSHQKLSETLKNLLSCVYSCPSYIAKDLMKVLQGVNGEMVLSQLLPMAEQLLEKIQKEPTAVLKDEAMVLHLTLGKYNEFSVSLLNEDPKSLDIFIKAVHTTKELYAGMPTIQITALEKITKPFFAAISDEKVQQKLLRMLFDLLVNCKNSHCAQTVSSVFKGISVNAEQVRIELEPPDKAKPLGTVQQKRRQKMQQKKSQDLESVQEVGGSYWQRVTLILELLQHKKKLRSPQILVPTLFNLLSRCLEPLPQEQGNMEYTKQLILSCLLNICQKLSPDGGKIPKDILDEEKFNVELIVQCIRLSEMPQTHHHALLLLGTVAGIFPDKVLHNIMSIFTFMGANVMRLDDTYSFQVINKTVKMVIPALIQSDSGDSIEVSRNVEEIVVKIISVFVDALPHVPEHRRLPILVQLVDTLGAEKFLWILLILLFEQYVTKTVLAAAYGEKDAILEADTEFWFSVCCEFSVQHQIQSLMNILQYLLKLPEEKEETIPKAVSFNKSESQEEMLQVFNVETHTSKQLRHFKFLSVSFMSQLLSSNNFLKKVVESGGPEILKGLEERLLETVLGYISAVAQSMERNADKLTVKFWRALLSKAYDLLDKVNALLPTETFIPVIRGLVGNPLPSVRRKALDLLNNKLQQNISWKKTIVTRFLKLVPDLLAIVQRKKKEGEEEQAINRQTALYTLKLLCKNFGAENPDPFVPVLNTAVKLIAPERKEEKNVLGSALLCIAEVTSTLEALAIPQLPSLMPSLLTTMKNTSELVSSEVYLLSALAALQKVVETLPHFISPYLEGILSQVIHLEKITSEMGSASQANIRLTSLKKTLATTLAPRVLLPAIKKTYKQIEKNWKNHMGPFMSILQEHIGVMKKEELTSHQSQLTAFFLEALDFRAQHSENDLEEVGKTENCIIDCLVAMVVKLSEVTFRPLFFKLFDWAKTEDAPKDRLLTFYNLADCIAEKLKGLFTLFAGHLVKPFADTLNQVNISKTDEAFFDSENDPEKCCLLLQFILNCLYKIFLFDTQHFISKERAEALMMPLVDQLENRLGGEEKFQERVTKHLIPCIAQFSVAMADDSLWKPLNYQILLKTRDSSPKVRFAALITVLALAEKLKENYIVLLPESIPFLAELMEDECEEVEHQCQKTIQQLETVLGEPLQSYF
UniProt P49590: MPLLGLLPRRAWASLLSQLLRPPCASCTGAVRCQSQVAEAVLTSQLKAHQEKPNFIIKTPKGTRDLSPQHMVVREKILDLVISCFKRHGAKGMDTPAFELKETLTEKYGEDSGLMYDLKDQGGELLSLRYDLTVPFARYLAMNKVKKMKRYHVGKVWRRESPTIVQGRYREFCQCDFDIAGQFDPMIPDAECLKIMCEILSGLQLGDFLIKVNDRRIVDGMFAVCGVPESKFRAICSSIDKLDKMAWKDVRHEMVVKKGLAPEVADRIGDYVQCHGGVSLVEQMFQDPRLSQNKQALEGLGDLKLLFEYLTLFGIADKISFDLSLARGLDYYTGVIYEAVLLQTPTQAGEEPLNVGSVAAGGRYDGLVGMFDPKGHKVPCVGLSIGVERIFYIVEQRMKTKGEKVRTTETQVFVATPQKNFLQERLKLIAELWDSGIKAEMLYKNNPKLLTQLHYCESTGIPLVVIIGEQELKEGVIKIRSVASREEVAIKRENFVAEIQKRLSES
UniProt P0C0S5, whole entry, looked up: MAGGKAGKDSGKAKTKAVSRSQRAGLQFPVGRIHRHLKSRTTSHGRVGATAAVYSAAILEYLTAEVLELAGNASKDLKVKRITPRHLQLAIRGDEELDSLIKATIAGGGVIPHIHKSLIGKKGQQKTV
UniProt P15170, whole entry, looked up: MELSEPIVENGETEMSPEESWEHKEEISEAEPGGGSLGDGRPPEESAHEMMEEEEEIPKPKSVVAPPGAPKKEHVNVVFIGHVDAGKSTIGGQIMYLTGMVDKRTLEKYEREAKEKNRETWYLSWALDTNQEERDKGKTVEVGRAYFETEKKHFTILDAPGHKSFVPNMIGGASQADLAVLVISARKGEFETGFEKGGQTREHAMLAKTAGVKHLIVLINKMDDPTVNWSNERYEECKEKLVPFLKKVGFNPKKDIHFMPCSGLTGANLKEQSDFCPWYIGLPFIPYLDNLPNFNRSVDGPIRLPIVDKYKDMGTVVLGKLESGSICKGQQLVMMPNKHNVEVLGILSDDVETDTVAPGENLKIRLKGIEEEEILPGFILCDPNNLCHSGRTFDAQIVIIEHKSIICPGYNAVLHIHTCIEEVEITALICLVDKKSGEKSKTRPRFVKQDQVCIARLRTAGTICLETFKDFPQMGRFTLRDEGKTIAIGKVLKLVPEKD

Key:
Experiment in all cases: log2 fold change, soluble protein after heating vs DMSO (PISA); higher = thermal stabilisation; K562 lysate, 10 uM; active = over 0.2 and 3.5 SD of the protein, either way, in both replicates (recomputed)
[1] = compound: CN1CC[C@H](c2c(O)cc(O)c3c(=O)cc(-c4ccccc4Cl)oc23)[C@H](O)C1 [alvocidib]
Summary of the method: (§1)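 Soluble protein was defined as the supernatant remaining after 21,000xg for 90 min, following pooling of heated aliquots and adjustment to 0.5% NP-40 at 4°C. Before that, crude K562 extract at 1 mg/mL protein in PBS pH 7.4 with 1 mM MgCl2 was treated with 10 μM compound for 30 min and heated for 3 min across 48°C-58°C. Quantification used TMTpro 16plex LC-MS/MS with channel sums equalised, and values are log-two fold changes in thermal stability relative to solvent controls from duplicates.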

[2] = compound: CN1CCc2c(c3ccccc3n2Cc2ccc(C(=O)NO)cc2)C1 [Tubastatin A]
Summary of the method: as §1

[3] = compound: CNC(=O)C1=CC=CC=C1NC2=NC(=NC=C2Cl)NC3=C(C=C(C=C3)N4CCOCC4)OC
Summary of the method: as §1

[4] = compound: CNC(=O)c1ccc(Nc2ncc(C(F)(F)F)c(NCc3nccnc3N(C)S(C)(=O)=O)n2)cc1 [defactinib]
Summary of the method: as §1

[5] = compound: CNc1nc(-c2ccc3c(N)n[nH]c3c2)cc(N2C[C@@H](C(=O)NC3CCCCC3)CC[C@H]2C)n1
Summary of the method: as §1

[6] = compound: COC(=O)N[C@@H](C)CNc1nccc(-c2cn(C(C)C)nc2-c2cc(Cl)cc(NS(C)(=O)=O)c2F)n1 [encorafenib]
Summary of the method: as §1

[7] = compound: COC(=O)[C@H](CCSC)NC(=O)C1=C(C=C(C=C1)NC[C@H](CS)N)C2=CC=CC=C2
Summary of the method: as §1

[8] = compound: COc1cc(Nc2ncc3c(n2)-c2ccc(Cl)cc2C(c2c(F)cccc2OC)=NC3)ccc1C(=O)O [alisertib]
Summary of the method: as §1

[9] = compound: COc1cc2nc(-c3cc(F)ccc3O)nc(N[C@@H]3CNC[C@H]3C(C)(C)O)c2cc1OC
Summary of the method: as §1

[10] = compound: COc1cc2ncnc(Nc3ccc(F)c(Cl)c3)c2cc1OCCCN1CCOCC1 [gefitinib]
Summary of the method: as §1

Measured: log2 fold change

GSTK1 (UniProt Q9Y2Q3)
inactive: [1] 0.026 | [2] 0.03 | [3] -0.031 | [4] 0.029 | [5] 0.005 | [6] 0.007 | [7] -0.007 | [8] 0.008 | [9] 0.003 | [10] -0.032

GSTM4 (UniProt Q03013)
inactive: [1] 0.006 | [2] -0.012 | [3] 0.029 | [4] 0.006 | [5] 0.077 | [6] -0.117 | [7] 0.095 | [8] 0.03 | [9] 0.002 | [10] 0.075

HBS1L isoform 2 (UniProt Q9Y450)
inactive: [1] -0.015 | [2] 0.05 | [3] 0.015 | [4] 0.016 | [5] 0.048 | [6] 0.072 | [7] -0.052 | [8] -0.046 | [9] -0.056 | [10] 0.013

GRHPR (UniProt Q9UBQ7)
inactive: [1] 0.099 | [2] 0.012 | [3] 0.027 | [4] -0.011 | [5] 0.01 | [6] -0.056 | [7] -0.034 | [8] 0.006 | [9] 0.008 | [10] -0.005

GTSE1 (UniProt Q9NYZ3)
inactive: [1] -0.03 | [2] -0.114 | [3] 0.104 | [4] -0.005 | [5] -0.018 | [6] 0.052 | [7] -0.127 | [8] -0.013 | [9] -0.02 | [10] 0.022

GTF3C1 (UniProt Q12789)
inactive: [1] -0.064 | [2] -0.134 | [3] 0.01 | [4] -0.009 | [5] -0.004 | [6] 0.057 | [7] 0.089 | [8] 0.014 | [9] -0.004 | [10] 0.008

HDAC4 (UniProt P56524)
inactive: [1] -0.1 | [2] 0.039 | [3] -0.037 | [4] 0.004 | [5] 0.055 | [6] 0.036 | [7] -0.03 | [8] 0.021 | [9] 0.054 | [10] -0.151

GSE1 (UniProt Q14687)
inactive: [1] -0.032 | [2] -0.155 | [3] 0.014 | [4] -0.006 | [5] -0.001 | [6] 0.017 | [7] 0.05 | [8] -0.017 | [9] 0.027 | [10] 0.013

GTPBP4 (UniProt Q9BZE4)
inactive: [1] 0.035 | [2] -0.018 | [3] 0.008 | [4] -0.001 | [5] 0.003 | [6] -0.011 | [7] 0.102 | [8] 0.005 | [9] -0.008 | [10] -0.023

GSTZ1 (UniProt G3V4T6)
active: [7] 0.35
inactive: [1] -0.016 | [2] 0.018 | [3] 0.01 | [4] 0.061 | [5] 0.028 | [6] -0.045 | [8] 0.023 | [9] 0.049 | [10] 0.002

GSK3A (UniProt P49840)
active: [1] 0.53
inactive: [2] -0.089 | [3] 0.05 | [4] 0.353 | [5] -0.042 | [6] 0.161 | [7] -0.118 | [8] -0.03 | [9] -0.015 | [10] 0.003

GSKIP (UniProt Q9P0R6)
inactive: [1] 0.07 | [2] 0.059 | [3] -0.013 | [4] 0.018 | [5] 0.021 | [6] 0.746 | [7] -0.136 | [8] 0.049 | [9] -0.087 | [10] -0.124

HADH isoform 2 (UniProt Q16836)
inactive: [1] 0.048 | [2] 0.003 | [3] -0.024 | [4] 0.061 | [5] 0.09 | [6] -0.048 | [7] 0.03 | [8] 0.021 | [9] -0.002 | [10] 0.042

Two records picked at random from the list so far:
GTPBP4 (UniProt Q9BZE4)
inactive: [1] 0.035 | [2] -0.018 | [3] 0.008 | [4] -0.001 | [5] 0.003 | [6] -0.011 | [7] 0.102 | [8] 0.005 | [9] -0.008 | [10] -0.023

GRHPR (UniProt Q9UBQ7)
inactive: [1] 0.099 | [2] 0.012 | [3] 0.027 | [4] -0.011 | [5] 0.01 | [6] -0.056 | [7] -0.034 | [8] 0.006 | [9] 0.008 | [10] -0.005

(cont.)

HEATR3 (UniProt Q7Z4Q2)
inactive: [1] 0.007 | [2] -0.129 | [3] 0.02 | [4] 0.012 | [5] 0 | [6] 0.014 | [7] 0.116 | [8] 0.018 | [9] -0.046 | [10] 0.003

H2AFX (UniProt P16104)
inactive: [1] -0.105 | [2] 0.035 | [3] -0.024 | [4] 0.042 | [5] 0.091 | [6] 0.002 | [7] 0.078 | [8] -0.074 | [9] -0.012 | [10] -0.009

GTF3C4 (UniProt Q9UKN8)
inactive: [1] 0.011 | [2] -0.03 | [3] -0.013 | [4] 0.015 | [5] -0.015 | [6] 0.034 | [7] -0.004 | [8] 0.005 | [9] 0.022 | [10] 0

HAUS3 (UniProt Q68CZ6)
inactive: [1] -0.022 | [2] -0.159 | [3] 0.043 | [4] -0.023 | [5] -0.021 | [6] 0.026 | [7] 0.065 | [8] 0.014 | [9] 0.003 | [10] -0.011

HADHB (UniProt P55084)
inactive: [1] -0.046 | [2] 0.033 | [3] 0.081 | [4] -0.065 | [5] -0.03 | [6] -0.058 | [7] 0.072 | [8] -0.019 | [9] -0.019 | [10] 0.022

HEATR1 (UniProt Q9H583)
inactive: [1] -0.024 | [2] 0.001 | [3] 0.014 | [4] 0.016 | [5] -0.02 | [6] 0.064 | [7] 0.028 | [8] 0.024 | [9] -0.007 | [10] -0.003

HARS2 (UniProt P49590)
inactive: [1] 0.041 | [2] -0.039 | [3] -0.053 | [4] -0.012 | [5] -0.005 | [6] 0.178 | [7] -0.011 | [8] -0.017 | [9] 0.047 | [10] 0.003

GYS1 (UniProt P13807)
inactive: [1] -0.033 | [2] -0.101 | [3] 0.02 | [4] -0.069 | [5] 0.016 | [6] 0.007 | [7] 0.028 | [8] -0.018 | [9] 0.003 | [10] 0.005

H1-2 (UniProt P16403)
inactive: [1] -0.022 | [2] 0.017 | [3] -0.011 | [4] 0.014 | [5] -0.008 | [6] -0.027 | [7] -0.031 | [8] 0.004 | [9] 0.011 | [10] -0.023

H2AZ1 (UniProt P0C0S5)
inactive: [1] -0.038 | [2] 0.062 | [3] -0.054 | [4] 0.014 | [5] 0.142 | [6] -0.023 | [7] 0.042 | [8] -0.004 | [9] 0.009 | [10] -0.027

GTF2H4 (UniProt Q92759)
inactive: [1] 0.005 | [2] -0.069 | [3] 0.018 | [4] 0.085 | [5] -0.01 | [6] 0.025 | [7] -0.015 | [8] 0.016 | [9] 0.02 | [10] -0.022

H1-3 (UniProt P16402)
inactive: [1] 0.044 | [2] 0.099 | [3] -0.012 | [4] -0.011 | [5] 0.006 | [6] -0.003 | [7] -0.023 | [8] 0.006 | [9] 0.017 | [10] -0.021

HACL1 (UniProt Q9UJ83)
inactive: [1] 0.01 | [2] 0.004 | [3] 0.016 | [4] -0.006 | [5] -0.003 | [6] 0.025 | [7] -0.052 | [8] -0.031 | [9] 0.014 | [10] -0.009

HDAC1 (UniProt Q13547)
inactive: [1] 0.003 | [2] -0.027 | [3] -0.015 | [4] 0.014 | [5] -0.012 | [6] 0.006 | [7] 0.04 | [8] 0.017 | [9] -0.031 | [10] 0.004

GSPT1 isoform 3 (UniProt P15170)
inactive: [1] 0.032 | [2] -0.012 | [3] 0.006 | [4] 0.01 | [5] 0.019 | [6] -0.012 | [7] -0.024 | [8] 0.014 | [9] -0.001 | [10] -0.037

HDAC2 (UniProt Q92769)
inactive: [1] -0.01 | [2] -0.012 | [3] -0.007 | [4] 0.006 | [5] 0.003 | [6] -0.006 | [7] 0.007 | [8] 0.002 | [9] 0 | [10] 0.013
